# From patent US20210002232A1, “HETEROCYCLIC COMPOUNDS AS FUNGICIDES” (PI INDUSTRIES LTD., priority 2018, published 2021)
# Some of these results come from one statement about several compounds together.
# Columns and labels:
# Assay type in all cases: cell-based
# Botrytis cinerea = Botrytis cinerea (gray mold) mycelial radial growth on Potato Dextrose Agar; conditions: 300 ppm; radial growth after seven days, 22° C., 90% relative humidity; compared to the untreated check
# Rhizoctonia solani = Rhizoctonia solani (rice sheath blight/potato black scurf) mycelial radial growth on Potato Dextrose Agar; conditions: 300 ppm; radial growth after seven days, 25° C., 60% relative humidity; compared to the untreated check
# Colletotrichum capsici = Colletotrichum capsici (anthracnose) mycelial radial growth on Potato Dextrose Agar; conditions: 300 ppm; radial growth after seven days, 25° C., 60% relative humidity; compared to the untreated check
SMILES,control (Botrytis cinerea),control (Rhizoctonia solani),control (Colletotrichum capsici)
"CS(=O)(=Nc1ccc(-c2n[nH]c(C(F)(F)F)n2)cc1)c1ccc(C(F)(F)F)cc1 (stereo not drawn) [Compound 40, Methyl((4-(5-(trifluoromethyl)-1h-1,2,4-triazol-3-yl)phenyl)imino)(4-(trifluoromethyl)phenyl)-λ^6-sulfanone]",more than 70%,,
"CS(=O)(=NCc1ccc(-c2nc(C(F)F)n[nH]2)cc1)c1ccccc1 (stereo not drawn) [Compound 42, ((4-(3-(difluoromethyl)-1h-1,2,4-triazol-5-yl)benzyl)imino)(methyl)(phenyl)-λ^6-sulfanone]",more than 70%,,
"O=C(O)c1ccc(-c2cc(C(F)(F)F)on2)cc1 [Compound 56, 4-(5-(trifluoromethyl)isoxazol-3-yl)benzoic acid]",,more than 70%,
"CS(=O)(=NC(=O)c1ccc(-c2cc(C(F)(F)F)on2)cc1)c1ccccn1 (stereo not drawn) [Compound 62, N-(methyl(oxo)(pyridin-2-yl)-λ^6-sulfaneylidene)-4-(5-(trifluoromethyl)isoxazol-3-yl)benzamide]",,more than 70%,more than 70%
"COc1ccc(S(C)(=O)=NC(=O)c2ccc(-c3coc(C(F)(F)F)n3)cc2)cc1 (stereo not drawn) [Compound 78, N-((4-methoxyphenyl)(methyl)(oxo)-λ^6-sulfaneylidene)-4-(2-(trifluoromethyl)oxazol-4-yl)benzamide]",,,more than 70%
